We go through 29 targets from the supplement of paper PMC12819154, “High-throughput peptide-centric local stability assay extends protein–ligand identification to membrane proteins, tissues and bacteria” (Nature Structural & Molecular Biology, 2025).

Sequences of proteins named here, by UniProt entry; tags and fusion partners are left off. A change or cut given only in a name is not applied to a line headed by its entry.
UniProt O75925, whole entry: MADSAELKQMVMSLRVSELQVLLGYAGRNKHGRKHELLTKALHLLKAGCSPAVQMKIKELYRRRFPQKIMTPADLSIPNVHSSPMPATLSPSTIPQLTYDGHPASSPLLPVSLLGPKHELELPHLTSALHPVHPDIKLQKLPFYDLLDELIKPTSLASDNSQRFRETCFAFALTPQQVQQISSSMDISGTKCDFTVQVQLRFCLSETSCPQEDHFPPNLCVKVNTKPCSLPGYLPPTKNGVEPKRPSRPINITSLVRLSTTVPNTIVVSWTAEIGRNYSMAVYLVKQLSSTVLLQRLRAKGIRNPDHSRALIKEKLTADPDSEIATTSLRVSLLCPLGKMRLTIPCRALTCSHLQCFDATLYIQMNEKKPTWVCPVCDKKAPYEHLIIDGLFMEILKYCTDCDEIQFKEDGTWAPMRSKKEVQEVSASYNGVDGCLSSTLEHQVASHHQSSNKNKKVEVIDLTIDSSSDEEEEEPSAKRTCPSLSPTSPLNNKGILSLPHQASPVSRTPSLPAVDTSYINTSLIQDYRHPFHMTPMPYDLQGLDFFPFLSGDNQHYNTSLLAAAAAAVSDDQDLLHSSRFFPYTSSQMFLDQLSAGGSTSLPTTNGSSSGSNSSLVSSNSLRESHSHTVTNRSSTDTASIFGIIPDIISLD
UniProt O95376: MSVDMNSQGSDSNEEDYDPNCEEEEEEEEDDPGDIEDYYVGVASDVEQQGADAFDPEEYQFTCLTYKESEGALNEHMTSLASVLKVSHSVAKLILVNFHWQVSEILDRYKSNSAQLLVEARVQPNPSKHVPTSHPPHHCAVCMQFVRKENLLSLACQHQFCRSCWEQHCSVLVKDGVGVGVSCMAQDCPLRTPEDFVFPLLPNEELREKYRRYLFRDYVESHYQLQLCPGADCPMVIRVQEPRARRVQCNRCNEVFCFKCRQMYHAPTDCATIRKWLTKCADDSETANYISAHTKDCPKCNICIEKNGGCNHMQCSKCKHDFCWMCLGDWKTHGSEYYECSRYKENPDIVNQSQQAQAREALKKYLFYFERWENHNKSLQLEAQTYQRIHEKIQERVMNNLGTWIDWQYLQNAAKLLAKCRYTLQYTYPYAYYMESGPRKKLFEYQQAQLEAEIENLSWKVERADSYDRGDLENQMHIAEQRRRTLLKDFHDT
UniProt O75521: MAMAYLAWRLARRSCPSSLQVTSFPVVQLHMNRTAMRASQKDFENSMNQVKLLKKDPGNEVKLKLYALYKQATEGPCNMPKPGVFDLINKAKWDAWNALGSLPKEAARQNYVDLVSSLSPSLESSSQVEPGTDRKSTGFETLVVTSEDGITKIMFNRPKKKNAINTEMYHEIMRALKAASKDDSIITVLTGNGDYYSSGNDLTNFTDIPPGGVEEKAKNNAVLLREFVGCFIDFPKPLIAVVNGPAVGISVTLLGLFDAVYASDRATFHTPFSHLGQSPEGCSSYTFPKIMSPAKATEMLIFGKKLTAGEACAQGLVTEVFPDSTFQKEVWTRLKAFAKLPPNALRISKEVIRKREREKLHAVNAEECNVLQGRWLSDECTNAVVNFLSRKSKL
UniProt O75529: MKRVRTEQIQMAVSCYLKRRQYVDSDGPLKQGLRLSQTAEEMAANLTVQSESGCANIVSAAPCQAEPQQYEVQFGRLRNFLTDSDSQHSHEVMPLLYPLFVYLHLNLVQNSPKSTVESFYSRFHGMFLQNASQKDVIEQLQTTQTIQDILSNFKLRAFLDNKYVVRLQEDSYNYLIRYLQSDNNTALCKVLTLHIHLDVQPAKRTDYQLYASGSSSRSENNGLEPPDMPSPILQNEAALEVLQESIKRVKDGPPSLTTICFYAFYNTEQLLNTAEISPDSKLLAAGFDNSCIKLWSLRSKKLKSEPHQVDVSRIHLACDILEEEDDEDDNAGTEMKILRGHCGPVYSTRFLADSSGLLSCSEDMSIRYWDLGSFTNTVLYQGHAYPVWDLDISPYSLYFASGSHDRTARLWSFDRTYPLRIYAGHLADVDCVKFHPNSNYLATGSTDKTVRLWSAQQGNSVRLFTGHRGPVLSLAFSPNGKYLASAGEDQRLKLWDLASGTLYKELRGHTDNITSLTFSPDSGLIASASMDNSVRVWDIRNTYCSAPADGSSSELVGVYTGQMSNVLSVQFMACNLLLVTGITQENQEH
UniProt O75683: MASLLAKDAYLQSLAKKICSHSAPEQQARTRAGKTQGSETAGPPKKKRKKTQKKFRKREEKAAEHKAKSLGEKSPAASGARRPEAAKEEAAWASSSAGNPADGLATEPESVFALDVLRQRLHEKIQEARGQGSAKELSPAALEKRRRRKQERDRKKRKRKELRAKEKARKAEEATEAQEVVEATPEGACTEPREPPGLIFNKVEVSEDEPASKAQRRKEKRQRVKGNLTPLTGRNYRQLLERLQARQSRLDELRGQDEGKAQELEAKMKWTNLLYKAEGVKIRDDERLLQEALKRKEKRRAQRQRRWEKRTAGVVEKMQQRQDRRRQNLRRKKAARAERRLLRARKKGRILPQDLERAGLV
UniProt O75880: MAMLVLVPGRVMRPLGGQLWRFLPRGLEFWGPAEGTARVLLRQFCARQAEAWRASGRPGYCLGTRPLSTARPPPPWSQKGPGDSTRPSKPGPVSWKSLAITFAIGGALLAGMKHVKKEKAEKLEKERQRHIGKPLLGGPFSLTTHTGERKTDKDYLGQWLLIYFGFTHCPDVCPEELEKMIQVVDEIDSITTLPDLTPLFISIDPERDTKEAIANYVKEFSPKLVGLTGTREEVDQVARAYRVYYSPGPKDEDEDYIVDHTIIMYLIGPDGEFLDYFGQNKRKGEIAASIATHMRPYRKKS
UniProt O95707: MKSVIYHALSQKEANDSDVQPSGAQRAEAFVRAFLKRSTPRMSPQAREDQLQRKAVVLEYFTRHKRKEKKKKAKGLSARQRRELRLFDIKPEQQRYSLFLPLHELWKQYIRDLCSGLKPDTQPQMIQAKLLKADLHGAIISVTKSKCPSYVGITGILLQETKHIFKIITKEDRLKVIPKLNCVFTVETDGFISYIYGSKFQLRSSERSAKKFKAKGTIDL
UniProt O95271: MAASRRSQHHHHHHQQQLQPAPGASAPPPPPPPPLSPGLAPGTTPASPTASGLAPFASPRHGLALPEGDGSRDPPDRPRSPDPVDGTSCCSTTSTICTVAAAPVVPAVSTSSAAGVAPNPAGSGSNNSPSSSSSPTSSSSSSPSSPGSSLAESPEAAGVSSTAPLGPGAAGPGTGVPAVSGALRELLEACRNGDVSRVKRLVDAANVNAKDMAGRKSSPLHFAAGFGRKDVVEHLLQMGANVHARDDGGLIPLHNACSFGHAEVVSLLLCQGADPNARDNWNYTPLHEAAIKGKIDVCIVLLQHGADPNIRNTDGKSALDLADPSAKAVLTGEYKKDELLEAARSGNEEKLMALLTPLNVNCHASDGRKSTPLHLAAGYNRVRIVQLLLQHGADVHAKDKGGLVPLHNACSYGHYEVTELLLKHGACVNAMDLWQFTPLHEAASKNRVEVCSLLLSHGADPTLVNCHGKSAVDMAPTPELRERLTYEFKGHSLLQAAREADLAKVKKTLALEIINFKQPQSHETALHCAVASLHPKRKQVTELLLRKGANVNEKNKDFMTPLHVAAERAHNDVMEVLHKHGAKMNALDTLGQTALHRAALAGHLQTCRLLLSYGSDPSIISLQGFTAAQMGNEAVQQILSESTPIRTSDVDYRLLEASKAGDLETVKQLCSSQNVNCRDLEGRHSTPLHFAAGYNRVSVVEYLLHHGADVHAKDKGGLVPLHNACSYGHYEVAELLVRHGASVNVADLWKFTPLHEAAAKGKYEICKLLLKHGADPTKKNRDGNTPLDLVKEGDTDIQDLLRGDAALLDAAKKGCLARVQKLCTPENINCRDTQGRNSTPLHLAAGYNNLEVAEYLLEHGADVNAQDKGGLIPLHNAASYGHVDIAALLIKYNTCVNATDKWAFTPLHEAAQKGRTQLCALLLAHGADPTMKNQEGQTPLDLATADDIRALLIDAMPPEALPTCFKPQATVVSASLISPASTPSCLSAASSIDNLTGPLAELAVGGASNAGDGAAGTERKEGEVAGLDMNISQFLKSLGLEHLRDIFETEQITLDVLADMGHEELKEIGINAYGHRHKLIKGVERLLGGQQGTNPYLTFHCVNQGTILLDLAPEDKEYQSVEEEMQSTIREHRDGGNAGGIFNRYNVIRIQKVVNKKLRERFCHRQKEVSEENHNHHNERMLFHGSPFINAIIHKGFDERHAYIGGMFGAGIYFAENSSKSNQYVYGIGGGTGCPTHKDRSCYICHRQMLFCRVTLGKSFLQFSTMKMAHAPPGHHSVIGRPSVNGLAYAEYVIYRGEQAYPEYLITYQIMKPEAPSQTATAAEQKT
UniProt O95789: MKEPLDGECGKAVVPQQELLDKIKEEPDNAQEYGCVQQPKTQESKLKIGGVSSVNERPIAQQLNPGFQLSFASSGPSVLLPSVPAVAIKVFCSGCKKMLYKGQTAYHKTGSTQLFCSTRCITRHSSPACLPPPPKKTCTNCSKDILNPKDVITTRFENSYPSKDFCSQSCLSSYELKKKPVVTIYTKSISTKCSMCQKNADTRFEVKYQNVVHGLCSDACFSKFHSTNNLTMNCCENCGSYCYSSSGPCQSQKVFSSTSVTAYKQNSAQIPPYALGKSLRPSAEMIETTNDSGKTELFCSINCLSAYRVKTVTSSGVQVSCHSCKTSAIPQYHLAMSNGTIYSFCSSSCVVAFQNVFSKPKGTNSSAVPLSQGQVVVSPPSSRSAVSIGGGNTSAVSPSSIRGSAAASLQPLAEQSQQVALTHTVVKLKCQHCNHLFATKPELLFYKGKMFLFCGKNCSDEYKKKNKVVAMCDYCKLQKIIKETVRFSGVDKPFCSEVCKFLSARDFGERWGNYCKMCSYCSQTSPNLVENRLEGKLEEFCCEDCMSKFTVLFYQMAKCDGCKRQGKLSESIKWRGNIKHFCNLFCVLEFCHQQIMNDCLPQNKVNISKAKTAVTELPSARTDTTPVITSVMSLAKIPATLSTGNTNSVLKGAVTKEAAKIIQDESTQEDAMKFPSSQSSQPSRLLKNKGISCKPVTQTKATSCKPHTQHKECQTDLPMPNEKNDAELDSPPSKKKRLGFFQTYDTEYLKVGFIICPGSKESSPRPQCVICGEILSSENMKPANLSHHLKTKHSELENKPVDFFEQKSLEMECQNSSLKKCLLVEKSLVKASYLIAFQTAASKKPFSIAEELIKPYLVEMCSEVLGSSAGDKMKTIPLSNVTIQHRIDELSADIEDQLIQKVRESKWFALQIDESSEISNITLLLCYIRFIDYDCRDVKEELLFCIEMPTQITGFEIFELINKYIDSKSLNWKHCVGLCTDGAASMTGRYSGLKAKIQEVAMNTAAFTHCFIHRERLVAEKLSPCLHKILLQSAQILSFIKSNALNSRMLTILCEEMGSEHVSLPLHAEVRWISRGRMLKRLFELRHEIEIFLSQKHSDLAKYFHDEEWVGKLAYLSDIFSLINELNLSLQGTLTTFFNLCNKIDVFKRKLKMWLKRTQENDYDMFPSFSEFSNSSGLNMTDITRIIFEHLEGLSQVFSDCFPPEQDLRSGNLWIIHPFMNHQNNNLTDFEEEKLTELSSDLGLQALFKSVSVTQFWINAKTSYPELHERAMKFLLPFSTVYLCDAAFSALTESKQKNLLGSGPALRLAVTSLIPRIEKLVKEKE
UniProt O75506: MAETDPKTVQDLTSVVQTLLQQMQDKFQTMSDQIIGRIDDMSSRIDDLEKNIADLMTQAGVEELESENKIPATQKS
UniProt O95433, whole entry: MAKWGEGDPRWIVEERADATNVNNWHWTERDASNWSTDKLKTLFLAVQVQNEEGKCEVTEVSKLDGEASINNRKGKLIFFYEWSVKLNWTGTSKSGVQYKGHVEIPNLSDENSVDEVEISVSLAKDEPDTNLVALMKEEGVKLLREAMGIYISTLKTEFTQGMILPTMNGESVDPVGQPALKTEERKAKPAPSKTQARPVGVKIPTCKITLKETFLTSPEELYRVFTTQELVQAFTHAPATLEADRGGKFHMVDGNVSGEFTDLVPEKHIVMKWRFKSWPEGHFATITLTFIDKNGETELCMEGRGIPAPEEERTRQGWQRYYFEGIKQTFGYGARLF
UniProt O75478: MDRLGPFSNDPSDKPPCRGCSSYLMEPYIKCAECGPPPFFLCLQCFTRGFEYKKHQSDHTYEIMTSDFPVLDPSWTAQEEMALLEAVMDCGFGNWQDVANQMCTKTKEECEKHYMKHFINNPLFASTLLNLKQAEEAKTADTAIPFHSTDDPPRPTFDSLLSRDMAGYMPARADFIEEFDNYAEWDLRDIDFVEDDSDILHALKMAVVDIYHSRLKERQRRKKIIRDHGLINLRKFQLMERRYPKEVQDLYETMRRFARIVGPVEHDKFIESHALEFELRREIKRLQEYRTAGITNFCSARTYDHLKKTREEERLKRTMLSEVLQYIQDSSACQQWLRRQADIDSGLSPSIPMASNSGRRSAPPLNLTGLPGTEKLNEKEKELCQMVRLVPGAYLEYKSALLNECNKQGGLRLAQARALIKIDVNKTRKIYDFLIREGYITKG

This is one part of the list. Small differences around the control level are noise.

Compound in this experiment: CN[C@@H]1C[C@H]2O[C@@](C)([C@@H]1OC)n1c3ccccc3c3c4c(c5c6ccccc6n2c5c31)C(=O)NC4 [staurosporine]
As to the kind of experiment: log2 fold change of tryptic peptide abundance, ligand vs vehicle (limited proteolysis) (log2 ratio); higher = more trypsin-susceptible (destabilized). As to conditions: ligand concentration: 20 uM; sample: K562 cleared lysate; digestion: 4 min, 22 C (HT-PELSA RT4min, Orbitrap Astral).
Regarding “UniProt O75526 (peptide sequence: DSYSSSYGRSDR, peptide start residue: 324)”, the log2 fold change is -0.356.

For the target “ZRANB2 (peptide sequence: RSECNMCNTPK, peptide start residue: 82) (UniProt O95218)”, the log2 fold change is -0.19.

As to “CDC123 (peptide sequence: SVILPLPQNVK, peptide start residue: 25) (UniProt O75794)”, the log2 fold change was 0.195.

For “UniProt O95201 (peptide sequence: GACTGAVEVGQR, peptide start residue: 195)”, the log2 fold change is -0.358.

On to “HEXIM1 (peptide sequence: EYLELEKCLSR, peptide start residue: 290) (UniProt O94992)”, for which the log2 fold change was -0.212.

“GLS (peptide sequence: VLSPEAVR, peptide start residue: 447) (UniProt O94925)”: the log2 fold change was 0.199.

Regarding “PIAS1 (peptide sequence: KHELLTK, peptide start residue: 34) (UniProt O75925)”, the log2 fold change was found to be 0.552.

Consider “UniProt O94880 (peptide sequence: QLSPEAQAR, peptide start residue: 528)”, for which the log2 fold change is -0.46.

For the target “UniProt O94983 (peptide sequence: MESDFALLTLSDHEQR, peptide start residue: 1031)”, the log2 fold change is -0.457.

Take “UniProt O95049 (peptide sequence: AVGVGPGSSAGSNAR, peptide start residue: 557)”: the log2 fold change was 0.269.

For “ARIH2 (peptide sequence: ESEGALNEHMTSLASVLK, peptide start residue: 68) (UniProt O95376)”, the log2 fold change was 0.125.

Consider “STARD3NL (peptide sequence: LLIVQDASER, peptide start residue: 186) (UniProt O95772)”, for which the log2 fold change was -0.229.

Take “UniProt O75521 (peptide sequence: ATEMLIFGKK, peptide start residue: 296)”: the log2 fold change was 0.317.

“ALDH1A2 (peptide sequence: TMDEVIER, peptide start residue: 430) (UniProt O94788)”: the log2 fold change was 0.165.

Regarding “TAF5L (peptide sequence: QYVDSDGPLK, peptide start residue: 21) (UniProt O75529)”, the log2 fold change is -0.000362.

On to “SURF6 (peptide sequence: TQGSETAGPPK, peptide start residue: 35) (UniProt O75683)”, for which the log2 fold change is -0.115.

“UniProt O94874 (peptide sequence: IPEDQHALLVK, peptide start residue: 720)”: the log2 fold change amounted to 0.301.

On to “SCO1 (peptide sequence: GPGDSTRPSKPGPVSWK, peptide start residue: 80) (UniProt O75880)”, for which the log2 fold change was determined as 0.229.

Consider “DDAH2 (peptide sequence: EFFVGLSK, peptide start residue: 135) (UniProt O95865)”, for which the log2 fold change was -0.18.

“POP4 (peptide sequence: LFDIKPEQQR, peptide start residue: 86) (UniProt O95707)”: the log2 fold change was 0.483.

For the target “MYCBP2 (peptide sequence: ALPTMEAHQVIK, peptide start residue: 3334) (UniProt O75592)”, the log2 fold change came to 0.291.

In the case of “ZBTB7A (peptide sequence: DGCNGVPSR, peptide start residue: 488) (UniProt O95365)”, the log2 fold change was -0.263.

“TNKS (peptide sequence: ELLEACR, peptide start residue: 185) (UniProt O95271)”: the log2 fold change is -0.227.

“UniProt O95789 (peptide sequence: AVVPQQELLDK, peptide start residue: 12)”: the log2 fold change came out at 0.226.

On to “HSBP1 (peptide sequence: FQTMSDQIIGR, peptide start residue: 27) (UniProt O75506)”, for which the log2 fold change is -0.0218.

As for “AHSA1 (peptide sequence: LDGEASINNR, peptide start residue: 64) (UniProt O95433)”, the log2 fold change is 0.553.

Turning to “CLPX (peptide sequence: RAAAAADLANR, peptide start residue: 452) (UniProt O76031)”, the log2 fold change worked out at 0.321.

For the target “TADA2A (peptide sequence: TYDHLKK, peptide start residue: 302) (UniProt O75478)”, the log2 fold change came to 0.234.

For the target “FRYL (peptide sequence: QIPVHPVPDPLVHEVLNLAFK, peptide start residue: 137) (UniProt O94915)”, the log2 fold change is -0.787.
